# From PubChem BioAssay AID1671190 (National Center for Advancing Translational Sciences (NCATS), 2021)
# The chains behind the UniProt entries cited, without tags or fusion partners. Where a name states a change or a piece, a line headed by the entry shows the natural chain unless it says otherwise.
# UniProt P18054: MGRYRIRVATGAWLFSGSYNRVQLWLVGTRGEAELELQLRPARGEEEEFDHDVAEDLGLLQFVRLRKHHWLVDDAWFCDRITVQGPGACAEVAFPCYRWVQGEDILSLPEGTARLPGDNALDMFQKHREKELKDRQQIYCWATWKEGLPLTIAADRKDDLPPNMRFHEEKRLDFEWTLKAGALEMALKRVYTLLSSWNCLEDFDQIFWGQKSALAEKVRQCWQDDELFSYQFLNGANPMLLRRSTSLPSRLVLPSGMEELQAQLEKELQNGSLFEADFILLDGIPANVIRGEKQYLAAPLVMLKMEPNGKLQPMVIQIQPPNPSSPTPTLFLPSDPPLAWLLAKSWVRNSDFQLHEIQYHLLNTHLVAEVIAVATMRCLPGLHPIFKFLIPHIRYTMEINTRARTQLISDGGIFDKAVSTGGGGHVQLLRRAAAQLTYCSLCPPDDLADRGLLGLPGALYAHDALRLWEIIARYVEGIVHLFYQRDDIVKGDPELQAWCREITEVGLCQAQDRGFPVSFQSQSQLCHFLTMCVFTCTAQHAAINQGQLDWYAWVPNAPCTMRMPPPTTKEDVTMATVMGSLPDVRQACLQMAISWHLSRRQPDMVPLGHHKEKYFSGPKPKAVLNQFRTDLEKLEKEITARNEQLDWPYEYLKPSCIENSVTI
# Out of some 580,000 compounds screened, about 6,100 (1.1%) were called active. Inconclusive results, whose numbers are uncertain, are shown with a selection of clear calls. Calls come from the whole dose curve; as a rule, active = well fitted inhibition curve with a large enough effect; inconclusive = small, poorly fitted or top-dose-only effect, or another doubt; inactive = no such curve, though single readings can be large or run the other way. Potencies of inconclusive entries are doubtful fits and often do not repeat.
# Target: Polyunsaturated fatty acid lipoxygenase ALOX12 (Homo sapiens) (UniProt P18054)
# Assay: Primary qHTS assay for inhibitors of human arachidonate 12S-lipoxygenase (ALOX12): Round 2
# Conditions: purified 12hLO, xylenol orange hydroperoxide absorbance; activity change, negative = inhibition: at 108 µM (top of the series) unless noted
# Method in brief: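 Purified human 12hLO at 150 nM in 25 mM Hepes, 0.01% Triton X-100, pH 7.0, preincubated 15 min at room temperature with compound. Reaction started with 40 uM arachidonic acid, 30 min at room temperature. Hydroperoxide measured by Fe-xylenol orange, 573/405 nm absorbance ratio.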
# % is set by controls: 0 for no effect and ±100 for the full control effect; potency is the fitted concentration of half-maximal effect.
SMILES,Potency,"activity change, negative = inhibition"
CCCCNc1oc(/C=C/c2ccccc2OC)nc1C#N,"inconclusive: 35.5 µM [inhibitor, partial curve, poor fit]",–
C/C(=N/Nc1ccc(S(=O)(=O)Nc2ccccc2)cc1[N+](=O)[O-])c1cccnc1,–,inactive: -2.37%
CCCCCn1c(N)c(C#N)c2nc3ccccc3nc21,–,inactive: 0.649%
CCc1ccc2c(c1)NC(=O)C2(C)Cc1ccccc1 (configuration not stated),–,inactive: -0.819%
Cc1[nH]nc(-c2ccc(O)cc2O)c1Oc1ccccc1,"inconclusive: 50.1 µM [inhibitor, partial curve, poor fit]",–
CCS(=O)(=O)c1ccc(N=Nc2ccc(O)c3ncccc23)c(OC)c1,"inconclusive: 12.6 µM [inhibitor, partial curve, poor fit]",–
COc1ccc(CNC(=O)c2c([S-])n(-c3ccc(C)cc3)c3cccc[n+]23)cc1,"inconclusive: 100 µM [inhibitor, single point]",–
CN(C)CC(O)COc1ccc(NC(=O)Nc2cccc(F)c2)cc1 (configuration not stated),"inconclusive: 89.1 µM [inhibitor, partial curve, poor fit]",–
COc1ccc(Cc2c(-c3cccc(Cl)c3)nc3c(C)cc(Br)cn23)c(C)c1,active: 7.94 µM,–
O=C(c1cnsn1)N1CCN(c2ccccc2)CC1,"inconclusive: 35.5 µM [inhibitor, partial curve, poor fit]",–
Fc1ccc(Cn2nnnc2C(c2ccc(Cl)cc2)N2CCSCC2)cc1 (configuration not stated),"inconclusive: 89.1 µM [inhibitor, single point]",–
O=C(CCNc1n[nH]c(=O)[nH]c1=O)N/N=C\c1cccc(OCc2ccccc2)c1,"inconclusive: 112 µM [inhibitor, single point]",–
Cc1cc(C)cc(NC(=O)C2CC23CCN(Cc2ccc4ncccc4c2)CC3)c1 (configuration not stated),"inconclusive: 112 µM [inhibitor, single point]",–
c1ccc(-c2nc(NCc3ccco3)c3oc4ccccc4c3n2)cc1,active: 7.08 µM,–
CC(=O)Nc1cccc(-c2csc(Nc3ccc(C)cn3)n2)c1,"inconclusive: 5.62 µM [inhibitor, full curve, poor fit]",–
COc1cc(CN2CCN(CCCc3ccccc3)C(CCO)C2)cc(OC)c1O (configuration not stated),"inconclusive: 100 µM [inhibitor, single point]",–
CN(C)c1ccc(/C=C2\C(=N)N3N=C(CC(=O)N4CCCC4)SC3=NC2=O)cc1Br,"inconclusive: 79.4 µM [inhibitor, partial curve, poor fit]",–
COC(=O)CC(C(=O)OC)N1CCCC1 (configuration not stated),"inconclusive: 63.1 µM [inhibitor, partial curve, poor fit]",–
C=C1c2cccc(OC)c2O[C@H](C(=O)OCC)[C@@H]1CC(CC)CCCC (some centres not stated),"inconclusive: 44.7 µM [inhibitor, partial curve, poor fit]",–
Cc1cc(C)c2oc(C(=O)Nc3ccc(S(=O)(=O)N(C)Cc4ccccc4)cc3)cc(=O)c2c1,"inconclusive: 28.2 µM [inhibitor, partial curve, poor fit]",–
c1ccc(CNc2nc(Oc3ccncc3)c3sccc3n2)cc1,"inconclusive: 2 µM [inhibitor, single point]",–

# Looked up above.
# In Potency, `CN(C)c1ccc(/C=C2\C(=N)N3N=C(CC(=O)N4CCCC4)SC3=NC2=O)cc1Br` has inconclusive: 79.4 µM [inhibitor, partial curve, poor fit]
# In Potency, `C=C1c2cccc(OC)c2O[C@H](C(=O)OCC)[C@@H]1CC(CC)CCCC` (some centres not stated) has inconclusive: 44.7 µM [inhibitor, partial curve, poor fit]

# Remaining list, next part.

SMILES,Potency,"activity change, negative = inhibition"
O=[N+]([O-])c1cccc(/C=N/OCc2ccccc2Cl)c1,–,inactive: -18.7%
COc1ccc2ccc(O)c(CN3CCN(S(=O)(=O)c4cccc(C(F)(F)F)c4)CC3)c2c1,–,inactive: -14.2%
O=C(NC1CCS(=O)(=O)C1)c1cnn(-c2ccc(F)cc2)c1-n1cccc1 (configuration not stated),"inconclusive: 79.4 µM [inhibitor, partial curve, poor fit]",–
COc1ccc(-c2cc(N3CCCC(NC(=O)c4cccc(Br)c4)C3)n[nH]2)cc1 (configuration not stated),"inconclusive: 31.6 µM [inhibitor, partial curve, poor fit]",–
CC(=O)Nc1ccc(NC(=O)CSc2nc(C3CC3)n(-c3ccccc3)n2)cc1,–,inactive: 12%
O=C(c1ccc([N+](=O)[O-])o1)N1CCN(c2nc3c(Cl)cccc3s2)CC1,–,inactive: -3.53%
O=C(COc1ccccc1)NC(=S)Nc1ccc2c3c(cccc13)CC2,–,inactive: -1.13%
CC(/C=C1\SC(=S)N(CCCC(=O)Nc2ccc(C(=O)O)cc2)C1=O)=C\c1ccccc1,active: 44.7 µM,–
Cc1cc(C)c(OCC(O)CN2CCN(c3ccccn3)CC2)c(C)c1 (configuration not stated),"inconclusive: 17.8 µM [inhibitor, partial curve, poor fit]",–
N#C/C(=N\Nc1cccc(Cl)c1)C(=O)c1ccccc1,"inconclusive: 2 µM [inhibitor, full curve, poor fit]",–
COc1ccc(C(=O)NC2(C(F)(F)F)NC(=O)N(CCCc3ccccc3)C2=O)cc1OC (configuration not stated),–,inactive: -9.48%
Oc1ccc(-c2n[nH]c(C(F)(F)F)c2-c2ccccc2)c(O)c1,"inconclusive: 50.1 µM [inhibitor, partial curve, poor fit]",–
Cc1cc2c(c(-c3ccc4nc(C)ccc4c3)c1)OC(CNC(=O)Cc1ccn(C)c1)C2 (configuration not stated),"inconclusive: 126 µM [inhibitor, single point]",–
CCCSc1nnc(NC(=O)CSc2nc3[nH]c(=O)cc(O)c3s2)s1,"inconclusive: 100 µM [inhibitor, single point]",–
COc1ccc(NC(=O)c2nc(S(=O)(=O)Cc3ccc(C)cc3)ncc2Cl)cc1,–,inactive: -23.5%
O=C(c1ccc(Cl)cc1)N1CC2(CCN(Cc3ccc(Cl)cc3)CC2)Cc2ccccc21,"inconclusive: 79.4 µM [inhibitor, partial curve]",–
O=C(Nc1ccccc1C(=O)O)c1cccc(NC(=O)c2ccccc2Br)c1,"inconclusive: 11.2 µM [inhibitor, full curve, poor fit]",–
Cc1onc(-c2c(F)cccc2Cl)c1C(=O)Nc1sc2c(c1C(N)=O)CCC2,"inconclusive: 25.1 µM [inhibitor, partial curve, poor fit]",–
O=C(C(=O)N1CCN(c2ccccc2)CC1)c1cccc(Br)c1,–,inactive: 8.67%
COc1cccc(-c2nc(-c3ccccn3)no2)c1OC,–,inactive: 0% [at 57.4 µM]
CCOC(=O)c1sc2nc3c(cc2c1N)COC(C)(CC)C3 (configuration not stated),"inconclusive: 2.82 µM [inhibitor, full curve, poor fit]",–
